# Measured values taken from publication PMC7546007.
# The chains behind the UniProt entries cited, without tags or fusion partners. Residues count along the entry.
# UniProt Q99836: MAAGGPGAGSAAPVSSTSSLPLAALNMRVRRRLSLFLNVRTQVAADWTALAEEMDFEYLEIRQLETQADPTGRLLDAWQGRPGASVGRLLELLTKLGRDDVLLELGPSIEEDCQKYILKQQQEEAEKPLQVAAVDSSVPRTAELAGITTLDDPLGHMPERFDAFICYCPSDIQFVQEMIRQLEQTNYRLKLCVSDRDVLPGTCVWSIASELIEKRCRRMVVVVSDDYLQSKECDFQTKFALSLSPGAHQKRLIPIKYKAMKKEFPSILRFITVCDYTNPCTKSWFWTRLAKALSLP
# UniProt Q14790: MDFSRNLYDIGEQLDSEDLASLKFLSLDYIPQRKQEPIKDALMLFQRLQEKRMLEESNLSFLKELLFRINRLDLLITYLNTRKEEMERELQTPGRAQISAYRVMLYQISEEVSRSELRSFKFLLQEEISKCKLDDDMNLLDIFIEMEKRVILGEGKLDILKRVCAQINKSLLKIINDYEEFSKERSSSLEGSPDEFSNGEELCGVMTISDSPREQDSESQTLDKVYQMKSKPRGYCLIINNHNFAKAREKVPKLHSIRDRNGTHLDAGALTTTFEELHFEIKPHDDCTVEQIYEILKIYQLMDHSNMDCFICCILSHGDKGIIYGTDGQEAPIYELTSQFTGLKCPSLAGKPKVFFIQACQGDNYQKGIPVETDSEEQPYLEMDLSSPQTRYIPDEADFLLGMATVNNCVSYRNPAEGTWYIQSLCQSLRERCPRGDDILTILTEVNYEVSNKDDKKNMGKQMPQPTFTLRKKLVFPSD
# UniProt Q13546: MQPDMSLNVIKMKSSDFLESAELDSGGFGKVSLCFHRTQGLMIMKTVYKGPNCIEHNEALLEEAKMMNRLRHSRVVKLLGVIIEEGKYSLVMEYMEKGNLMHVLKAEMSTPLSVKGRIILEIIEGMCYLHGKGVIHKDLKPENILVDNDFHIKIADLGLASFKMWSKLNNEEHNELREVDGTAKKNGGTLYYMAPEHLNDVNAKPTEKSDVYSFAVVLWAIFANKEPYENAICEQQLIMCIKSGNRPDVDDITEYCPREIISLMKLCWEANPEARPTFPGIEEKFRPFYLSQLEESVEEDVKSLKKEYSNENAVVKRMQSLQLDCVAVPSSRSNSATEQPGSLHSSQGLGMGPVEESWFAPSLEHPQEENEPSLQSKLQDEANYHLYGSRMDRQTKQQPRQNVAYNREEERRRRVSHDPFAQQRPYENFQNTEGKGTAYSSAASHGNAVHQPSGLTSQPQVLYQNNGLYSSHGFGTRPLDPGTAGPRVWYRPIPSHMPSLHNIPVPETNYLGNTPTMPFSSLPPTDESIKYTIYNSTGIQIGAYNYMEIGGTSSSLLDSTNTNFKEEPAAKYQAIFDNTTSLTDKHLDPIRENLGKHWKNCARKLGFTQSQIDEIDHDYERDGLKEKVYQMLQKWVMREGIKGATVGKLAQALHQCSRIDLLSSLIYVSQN
# UniProt O00206, residues 24-839: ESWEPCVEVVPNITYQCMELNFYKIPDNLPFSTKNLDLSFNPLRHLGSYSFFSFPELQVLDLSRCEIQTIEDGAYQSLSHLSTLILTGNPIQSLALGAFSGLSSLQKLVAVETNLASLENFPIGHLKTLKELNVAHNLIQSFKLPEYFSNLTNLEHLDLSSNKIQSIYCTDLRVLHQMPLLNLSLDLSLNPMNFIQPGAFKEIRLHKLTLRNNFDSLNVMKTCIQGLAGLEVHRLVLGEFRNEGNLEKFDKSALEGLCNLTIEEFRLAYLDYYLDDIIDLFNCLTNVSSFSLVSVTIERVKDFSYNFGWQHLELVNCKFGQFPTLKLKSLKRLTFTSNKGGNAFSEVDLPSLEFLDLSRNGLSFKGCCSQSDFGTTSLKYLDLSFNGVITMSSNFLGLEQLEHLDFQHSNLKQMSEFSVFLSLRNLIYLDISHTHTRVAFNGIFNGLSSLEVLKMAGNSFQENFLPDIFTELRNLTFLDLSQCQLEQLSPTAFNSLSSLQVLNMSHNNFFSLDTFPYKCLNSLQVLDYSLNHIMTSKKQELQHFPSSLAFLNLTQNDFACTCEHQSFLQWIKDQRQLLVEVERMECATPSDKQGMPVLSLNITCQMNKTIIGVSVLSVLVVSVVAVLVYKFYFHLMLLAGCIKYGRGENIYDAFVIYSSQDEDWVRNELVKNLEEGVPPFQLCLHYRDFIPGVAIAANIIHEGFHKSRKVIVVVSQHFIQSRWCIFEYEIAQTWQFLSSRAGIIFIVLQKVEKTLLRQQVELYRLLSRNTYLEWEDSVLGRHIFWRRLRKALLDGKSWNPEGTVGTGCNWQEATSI
# UniProt P51617: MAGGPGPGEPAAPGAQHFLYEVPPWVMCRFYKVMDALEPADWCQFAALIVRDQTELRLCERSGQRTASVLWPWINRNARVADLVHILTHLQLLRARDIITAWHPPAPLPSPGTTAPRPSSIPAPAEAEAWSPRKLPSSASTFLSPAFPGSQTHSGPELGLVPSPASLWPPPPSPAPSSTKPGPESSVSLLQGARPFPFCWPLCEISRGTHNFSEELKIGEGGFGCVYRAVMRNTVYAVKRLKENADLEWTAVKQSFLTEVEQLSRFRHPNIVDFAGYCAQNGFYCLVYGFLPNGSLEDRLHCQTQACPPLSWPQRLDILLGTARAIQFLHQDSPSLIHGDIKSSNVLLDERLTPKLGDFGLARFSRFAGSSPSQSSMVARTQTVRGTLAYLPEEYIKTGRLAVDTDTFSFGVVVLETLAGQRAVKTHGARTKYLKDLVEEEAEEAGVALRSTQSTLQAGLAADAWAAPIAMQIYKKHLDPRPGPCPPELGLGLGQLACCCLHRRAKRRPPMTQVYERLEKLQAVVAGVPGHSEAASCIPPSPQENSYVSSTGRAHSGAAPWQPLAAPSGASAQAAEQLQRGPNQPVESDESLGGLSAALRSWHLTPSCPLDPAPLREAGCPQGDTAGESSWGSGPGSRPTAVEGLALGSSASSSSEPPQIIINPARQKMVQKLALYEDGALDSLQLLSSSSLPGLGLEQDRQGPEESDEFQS
# UniProt Q8IUC6: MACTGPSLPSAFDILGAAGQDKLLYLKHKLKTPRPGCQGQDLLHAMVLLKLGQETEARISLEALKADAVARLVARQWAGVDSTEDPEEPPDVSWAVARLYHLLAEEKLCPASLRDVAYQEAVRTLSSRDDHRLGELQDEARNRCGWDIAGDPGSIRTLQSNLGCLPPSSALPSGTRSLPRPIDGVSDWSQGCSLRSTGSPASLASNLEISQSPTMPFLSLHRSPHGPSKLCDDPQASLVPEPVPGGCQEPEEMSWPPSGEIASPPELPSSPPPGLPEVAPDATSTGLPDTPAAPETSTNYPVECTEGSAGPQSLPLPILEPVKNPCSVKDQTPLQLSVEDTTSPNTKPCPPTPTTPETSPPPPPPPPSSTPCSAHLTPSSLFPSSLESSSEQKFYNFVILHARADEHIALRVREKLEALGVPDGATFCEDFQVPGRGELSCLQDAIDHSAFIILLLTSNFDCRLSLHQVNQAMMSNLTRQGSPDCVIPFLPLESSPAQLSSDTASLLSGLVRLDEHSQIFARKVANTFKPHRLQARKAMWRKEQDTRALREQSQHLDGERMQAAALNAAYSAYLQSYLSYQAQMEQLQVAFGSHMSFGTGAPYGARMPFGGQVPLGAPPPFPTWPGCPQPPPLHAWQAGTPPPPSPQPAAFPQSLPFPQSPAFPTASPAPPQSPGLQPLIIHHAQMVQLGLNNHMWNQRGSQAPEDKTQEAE
# No constants are given. Whether binding was seen depends on the method and setting. In cells and extracts the contact can be indirect. Some entries that bind do so weakly or less than the wild type. For part of these data: Tags and fused reporters may be left off the sequences shown.
# Legend:
# [1] = target: myeloid differentiation primary response gene 88 (MyD88) (human (endogenous in HK-2)) (UniProt Q99836); test: co-IP; immunoprecipitation of endogenous MyD88 from RIPA lysates of LPS-stimulated HK-2 cells with or without hypoxia (also Pellino1 knockout cells); blots for TLR4, IRAK1 and TRAF6
# [2] = target: caspase-8 (human (endogenous in HK-2)) (UniProt Q14790); test: co-IP; immunoprecipitation of endogenous caspase-8 from RIPA lysates of HK-2 cells (LPS plus hypoxia; LPS with Pellino1 siRNA; with DAPK1 inhibitor or DAPK1 siRNA); blots for TRIF and RIP1
# [3] = target: T1, Flag-tagged wild-type Pellino1 (human) (UniProt Q96FA3); test: co-IP; immunoprecipitation of Flag-Pellino1 with anti-Flag from RIPA lysates of transfected HK-2 cells stimulated with LPS with or without hypoxia (also with DAPK1 inhibitor or DAPK1 siRNA); blots for TRIF, RIP1, DAPK1
# T1 sequence: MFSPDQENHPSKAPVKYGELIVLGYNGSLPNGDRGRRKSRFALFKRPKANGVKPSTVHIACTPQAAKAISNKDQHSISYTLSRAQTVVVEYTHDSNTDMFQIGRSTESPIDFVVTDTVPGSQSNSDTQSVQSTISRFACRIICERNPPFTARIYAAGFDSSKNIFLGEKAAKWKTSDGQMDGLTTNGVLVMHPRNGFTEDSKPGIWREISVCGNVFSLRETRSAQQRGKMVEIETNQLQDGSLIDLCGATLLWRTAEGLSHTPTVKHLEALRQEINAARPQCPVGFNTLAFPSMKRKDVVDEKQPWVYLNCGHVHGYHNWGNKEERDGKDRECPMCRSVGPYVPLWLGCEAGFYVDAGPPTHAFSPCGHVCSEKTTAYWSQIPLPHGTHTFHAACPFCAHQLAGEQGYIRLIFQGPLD
# [4] = target: receptor-interacting protein 1 (RIP1) (human (endogenous in HK-2)) (UniProt Q13546); test: co-IP; immunoprecipitation of endogenous RIP1 from RIPA lysates of Flag-Pellino1-transfected, LPS-stimulated HK-2 cells with or without hypoxia; blots for Flag, TRIF and caspase-8
binding [1],binding [2],binding [3],binding [4],Substance
binds,,,,toll-like receptor 4 (TLR4) (from UniProt O00206 24-839)
binds,,,,interleukin-1 receptor-associated kinase 1 (IRAK1) (from UniProt P51617 1-712) (enzyme)
,binds,binds,binds,TIR domain-containing adapter-inducing interferon β (TRIF) (from UniProt Q8IUC6 1-712)
,,binds,,receptor-interacting protein 1 (RIP1) (from UniProt Q13546 1-671) (enzyme)
